Experimental data as given in paper PMC8595217.

Amino acid sequences for entries named in this document (tags omitted). A change or cut given only in a name is not applied to a line headed by its entry.
UniProt P10636: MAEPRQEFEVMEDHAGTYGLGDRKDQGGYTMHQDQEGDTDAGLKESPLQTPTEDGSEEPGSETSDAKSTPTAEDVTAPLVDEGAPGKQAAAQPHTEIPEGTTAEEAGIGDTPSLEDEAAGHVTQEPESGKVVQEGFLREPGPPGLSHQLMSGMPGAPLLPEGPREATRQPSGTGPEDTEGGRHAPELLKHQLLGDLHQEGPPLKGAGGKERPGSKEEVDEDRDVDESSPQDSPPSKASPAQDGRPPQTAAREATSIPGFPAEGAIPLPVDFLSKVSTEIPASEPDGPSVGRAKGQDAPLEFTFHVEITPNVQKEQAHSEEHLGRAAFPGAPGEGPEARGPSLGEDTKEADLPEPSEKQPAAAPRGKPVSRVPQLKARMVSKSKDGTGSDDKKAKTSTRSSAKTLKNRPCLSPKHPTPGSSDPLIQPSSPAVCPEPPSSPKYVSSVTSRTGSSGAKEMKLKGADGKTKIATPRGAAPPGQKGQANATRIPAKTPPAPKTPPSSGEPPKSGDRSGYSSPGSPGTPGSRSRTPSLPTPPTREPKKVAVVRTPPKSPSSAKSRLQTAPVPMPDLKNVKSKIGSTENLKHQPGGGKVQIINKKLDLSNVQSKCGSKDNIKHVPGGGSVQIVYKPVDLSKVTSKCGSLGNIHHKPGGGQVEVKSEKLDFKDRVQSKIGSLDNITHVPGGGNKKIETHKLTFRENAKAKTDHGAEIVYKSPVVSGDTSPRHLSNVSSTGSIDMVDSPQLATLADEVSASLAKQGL
UniProt Q8IXI2: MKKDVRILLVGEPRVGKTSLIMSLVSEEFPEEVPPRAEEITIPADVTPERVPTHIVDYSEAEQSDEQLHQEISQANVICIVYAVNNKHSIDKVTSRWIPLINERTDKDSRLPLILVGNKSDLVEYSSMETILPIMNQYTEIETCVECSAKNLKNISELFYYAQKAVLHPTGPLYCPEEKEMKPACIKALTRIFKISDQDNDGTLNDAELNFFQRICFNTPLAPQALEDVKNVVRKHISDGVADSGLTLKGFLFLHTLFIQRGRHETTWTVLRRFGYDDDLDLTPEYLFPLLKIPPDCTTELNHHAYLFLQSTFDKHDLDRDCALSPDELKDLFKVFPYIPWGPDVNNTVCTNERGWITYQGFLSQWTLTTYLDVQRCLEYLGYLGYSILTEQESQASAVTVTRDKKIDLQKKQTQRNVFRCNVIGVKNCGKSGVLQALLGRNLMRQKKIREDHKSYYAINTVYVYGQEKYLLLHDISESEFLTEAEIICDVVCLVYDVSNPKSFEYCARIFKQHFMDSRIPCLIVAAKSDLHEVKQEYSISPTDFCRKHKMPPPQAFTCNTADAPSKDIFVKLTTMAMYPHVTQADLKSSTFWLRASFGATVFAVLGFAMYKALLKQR

Target: EGFP-tau-P301L (from pRK5-EGFP-tau-P301L) (UniProt P10636)
Assay: co-IP; IP with anti-GFP from HEK cells transfected with EGFP-tau and Miro1 constructs; immunoblot

binding: no binding
Substance: Miro1 (transfected Miro1 construct) (from UniProt Q8IXI2 1-618)

Results are given in words; binding and its absence hold for the method and conditions named. In cells and extracts the contact can be indirect.
